Source: paper PMC6691589
These are yes or no findings as the source states them, for the method shown. Binding seen in cells or lysates may run through a third protein. Some entries that bind do so weakly or less than the wild type.

Chains of the proteins cited; added tags and fusions are not shown. Lines headed by an entry give the natural chain unless they say otherwise; changes in a name come on top. Residues count along the entry.
UniProt P03146: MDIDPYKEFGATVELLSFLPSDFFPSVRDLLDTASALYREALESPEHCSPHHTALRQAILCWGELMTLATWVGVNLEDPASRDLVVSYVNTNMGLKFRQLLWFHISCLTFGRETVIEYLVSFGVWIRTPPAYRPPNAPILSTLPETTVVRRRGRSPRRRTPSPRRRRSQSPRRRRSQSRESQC
pcDNA4.0-HBc 45-183aa (hepatitis B virus (cDNA of HepG2.2.15 cells)): residues 45-183 of P03146
UniProt P12004: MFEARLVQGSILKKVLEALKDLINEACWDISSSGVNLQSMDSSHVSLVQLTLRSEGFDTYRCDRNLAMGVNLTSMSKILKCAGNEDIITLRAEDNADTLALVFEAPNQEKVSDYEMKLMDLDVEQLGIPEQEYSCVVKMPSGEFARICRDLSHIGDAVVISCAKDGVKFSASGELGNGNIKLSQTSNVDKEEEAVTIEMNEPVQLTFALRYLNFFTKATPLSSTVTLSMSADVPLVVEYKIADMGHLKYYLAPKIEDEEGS

Key:
[1] = target: pcDNA4.0-HBc 45-183aa (hepatitis B virus (cDNA of HepG2.2.15 cells)) (UniProt P03146); experiment: co-IP; HepG2 cells transfected with His-HBc or His-tagged serial HBc deletion mutants (Figure 3C bottom: cotransfected with PCH9/3091 plasmids)
[2] = target: pcDNA4.0-HBc-wt (hepatitis B virus (cDNA of HepG2.2.15 cells)) (UniProt P03146); experiment: as above
[3] = target: HBc (endogenous, HepG2.2.15 cells) (hepatitis B virus (expressed in HepG2.2.15 cells)) (UniProt P03146); experiment: co-IP; endogenous PCNA and HBc in HepG2.2.15 cells

Measured: binding

PCNA (from UniProt P12004 1-261)
binds: [1] | [2] | [3]
